The values below are quoted from earlier work in patent US6475746B1, “Method of obtaining a composition comprising a 5-HT1D selective compound” (Synaptic Pharmaceutical Corporation, priority 1990, dated 2002).

The term Ki denotes a measure of affinity in units of concentration, obtained from inhibition or displacement.

The data set has as its target Human Native Membranes 5-HT1D. Particulars: literature values (footnotes a, b, c), read-out: Estimated equilibrium dissociation constants (Ki values); cited from earlier work.

As to `CC[C@@H](CO)NC(=O)[C@@H]1C=C2c3cccc4c3c(cn4C)C[C@H]2N(C)C1` [Methysergide], the inhibition constant (Ki) was 0.014 µM. `O=C(CCCN1CCC2(CC1)C(=O)NCN2c1ccccc1)c1ccc(F)cc1` [Spiperone]: the inhibitory constant (Ki) is more than 10 µM.
